# Source: PubChem BioAssay AID504467 (National Center for Advancing Translational Sciences (NCATS), 2011)
# Hit rate of the full screen: of about 330,000 compounds, about 7,700 (2.3%) were called active. The shares of active, inactive and inconclusive entries below differ from those in the screen. Calls follow the shape of the dose curve; as a rule, active = well fitted inhibition curve with a large enough effect; inconclusive = small, poorly fitted or top-dose-only effect, or effect the other way; inactive = flat fitted curve, though single readings scatter. A potency beside an inconclusive call is a rough fit, not a confirmed value.
# Test: qHTS screen for small molecules that inhibit ELG1-dependent DNA repair in human embryonic kidney (HEK293T) cells expressing luciferase-tagged ELG1; also: nearly all actives have a fitted effect of over 55% in size
# Conditions: HEK293T ELG1-luciferase reporter, luminescence, 16 h, DNA damage induced by 5-fluorouridine; activity change, negative = inhibition: at 46.1 µM (top of the series)
# How it was run: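 Overnight (16 hr) co-exposure of 2,000 cells/well to 5-fluorouridine and compound at 37 °C preceded detection. Luciferase was quantified via ONE-Glo luminescence; loss of signal denotes inhibition.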
# % is scaled to controls: 0 for no effect and ±100 for the full control effect; potency is read from the fitted curve at half-maximal effect.
SMILES,Potency,"activity change, negative = inhibition"
Fc1ccc(-c2n[nH]c(=S)n2/N=C/c2c[nH]c3ccccc23)cc1,"inconclusive: 14.6 µM [activator, partial curve]",
Cc1ccc(-n2ncc(C(=O)Nc3cc(Cl)cc(Cl)c3)c2C2CCNCC2)cc1C,"inconclusive: 25.9 µM [inhibitor, single point]",
CC(=O)c1ccccc1NC(=O)CCNC(=O)c1ccco1,"inconclusive: 29.1 µM [activator, single point]",
COc1ccc(CC(=O)c2ccc(O)cc2O)cc1OC,"inconclusive: 29.1 µM [activator, single point]",
Cc1cc(C)nc(/N=C(\N)Nc2ccc(C(C)C)cc2)n1,"inconclusive: 10.3 µM [inhibitor, partial curve]",
O=C(CSc1nnc(-c2ccccc2)o1)Nc1ccccc1F,"inconclusive: 0.231 µM [activator, full curve, poor fit]",
COC(=O)c1c(NC(=O)CN2CCC3(O)CCCCC3C2c2ccccc2OC)sc(C)c1C (stereo not drawn),"inconclusive: 18.4 µM [inhibitor, partial curve, poor fit]",
COc1ccc(N2CCN(C3CCCCC3NS(=O)(=O)c3ccccc3)CC2)cc1 (stereo not drawn),,inactive: -5.22%
Cc1cc(/C=N/NC(N)=S)c(C)n1-c1ccc(Br)cc1,"inconclusive: 29.1 µM [inhibitor, single point]",
CC(C)COc1ccc(-c2nn(-c3ccccc3)cc2C(=O)Nc2nccs2)cc1,,inactive: -14.1%
Cc1cc(C)nc(SCc2nnc(SCC(=O)Nc3ncc(C)s3)n2Cc2ccco2)n1,"inconclusive: 20.6 µM [inhibitor, partial curve, poor fit]",
Cc1ccc(/C=C/C(=O)c2ccc(C)cc2)cc1,"inconclusive: 23.1 µM [activator, partial curve]",
CC1CN(C(=O)c2ccc([N+](=O)[O-])s2)CC(C)O1 (stereo not drawn),,inactive: 0.0014%
Cc1ccc(-n2c(C)c([N+](=O)[O-])c3ccc(O)cc32)cc1,"inconclusive: 5.17 µM [inhibitor, full curve]",
CN(C)c1ccc(/C=C2/SC(=O)N(CCN=C3NS(=O)(=O)c4ccccc43)C2=O)cc1,"inconclusive: 8.2 µM [activator, partial curve]",
O=C(c1ccc(Cl)c(S(=O)(=O)N2CCCC2)c1)N1CCN(c2ccccc2)CC1,active: 16.4 µM,
COc1ccc(C(=O)COC(=O)C2CCCN2C(=O)C23CC4CC(CC(C4)C2)C3)cc1 (stereo not drawn),,inactive: 0.362%
COc1cccc(CN(C)C(=O)c2cc(S(=O)(=O)NCc3ccccc3)ccc2C)c1OC,"inconclusive: 13 µM [inhibitor, partial curve]",

# Some of the entries so far, as tab-separated lines.
SMILES	Potency	activity change, negative = inhibition
COC(=O)c1c(NC(=O)CN2CCC3(O)CCCCC3C2c2ccccc2OC)sc(C)c1C (stereo not drawn)	inconclusive: 18.4 µM [inhibitor, partial curve, poor fit]	
COc1ccc(N2CCN(C3CCCCC3NS(=O)(=O)c3ccccc3)CC2)cc1 (stereo not drawn)		inactive: -5.22%
